Like-named read-outs stand apart in the source and are kept apart here. These are yes or no findings as the source states them, for the method shown. In cells and extracts the contact can be indirect. Some results given as binding are weak or reduced against the parent protein; the word gives no strength.
T1: DkMYB2 (Diospyros kaki) (UniProt D0VYJ7)
T1 sequence: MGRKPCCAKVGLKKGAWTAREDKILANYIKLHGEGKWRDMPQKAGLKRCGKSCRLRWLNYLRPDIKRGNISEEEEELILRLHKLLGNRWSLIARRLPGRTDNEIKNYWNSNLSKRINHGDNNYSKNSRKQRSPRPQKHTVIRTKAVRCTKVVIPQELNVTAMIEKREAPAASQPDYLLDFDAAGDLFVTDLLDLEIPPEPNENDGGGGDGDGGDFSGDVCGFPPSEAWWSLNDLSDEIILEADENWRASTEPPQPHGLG

Protein sequences, listed by entry. Tags and fused reporters are not part of them.
UniProt D0VYJ9: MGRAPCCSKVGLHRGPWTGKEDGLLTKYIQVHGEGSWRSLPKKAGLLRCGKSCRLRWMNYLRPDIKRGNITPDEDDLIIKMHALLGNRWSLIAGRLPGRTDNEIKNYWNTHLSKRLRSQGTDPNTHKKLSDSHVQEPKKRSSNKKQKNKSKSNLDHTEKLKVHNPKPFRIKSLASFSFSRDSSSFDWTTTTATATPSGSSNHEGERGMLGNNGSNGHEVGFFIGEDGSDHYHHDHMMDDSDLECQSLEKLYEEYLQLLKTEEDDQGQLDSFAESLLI

B1: DkMYB2 (protein, UniProt D0VYJ7 1-259)
chain: MGRKPCCAKVGLKKGAWTAREDKILANYIKLHGEGKWRDMPQKAGLKRCGKSCRLRWLNYLRPDIKRGNISEEEEELILRLHKLLGNRWSLIARRLPGRTDNEIKNYWNSNLSKRINHGDNNYSKNSRKQRSPRPQKHTVIRTKAVRCTKVVIPQELNVTAMIEKREAPAASQPDYLLDFDAAGDLFVTDLLDLEIPPEPNENDGGGGDGDGGDFSGDVCGFPPSEAWWSLNDLSDEIILEADENWRASTEPPQPHGLG

Assays:
Assay in all cases: split reporter; BiFC with NtYFP and CtYFP fragments tested on both Nt and Ct sides of each factor; transient co-expression in N. benthamiana leaves (A. tumefaciens C58, OD600 0.4) with HC-Pro; confocal microscopy at 3 days post-infiltration
[1] = biological target: DkMYB4 (Diospyros kaki) (UniProt D0VYJ9)
[2] = biological target: T1, DkMYB2 (Diospyros kaki)
[3] = biological target: T1, DkMYB2 (Diospyros kaki); remark: listed apart in the source

| Molecule | binding [1] | binding [2] | binding [3] |
| --- | --- | --- | --- |
| DkMYB4 (from UniProt D0VYJ9 1-277) | binds | binds |  |
| B1 |  |  | binds |
